Measured values published in PubChem BioAssay AID1508600 (Functional Genomics Laboratory (NCATS/FGL), 2020).
Out of some 53,000 sequences screened, about 3,700 (7%) were called active.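 The calls were made as follows: active = gene knockdowns whose robust z-score for IL-1 alpha signal is at least 2 or at most -2, so actives lie on both sides; inactive = the rest.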 The list shows a part of the results.

Experiment: Components of the Cytosolic LPS Sensing Pathway: Gene Identification via Genome-wide siRNA Screen;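 also: robust z of the log signal after scaling to non-targeting control siRNA wells of the plate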
Settings: RAW264.7 macrophages, IL-1a HTRF, actives lie on both sides, screened at 100 nM (by protocol), cells primed 5 h with Pam3CSK4 first
In short: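 Knockdown: 100 nM siRNA, 48h, RAW264.7. Stimulation: Pam3CSK4 5 h, then LipidA via TransIT-TKO 24 h. Output: supernatant IL-1a HTRF, negative-control-normalized, log robust z-score; viability by CellTiter-Glo.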

Sequence | z-score
GCGAGUCUCACAUCAGUGATT against Tshz3 | active: 2.68
CCUUAGGCAUGGUCUGGACTT against Gal3st2 | inactive: 0.897
GGGCUUACCUAUGUCCCUCTT against Olfr406 | inactive: -0.779
CCUUCUGGAGUACAUAUCCTT against Trip6 | inactive: 0.16
GGUGUCUACUCUGAGUUGCTT against Pan2 | inactive: 1.94
CGGCAAGCCCAAAAAGGUCTT against Dlx3 | active: -2.34
GGAGGAAGAAAUGUUUCGCTT against Slc9a8 | inactive: -1.67
GGGUCUGGUUUAUUCAUGUTT against Zic1 | inactive: -1.22
GGAAGUAUGCAGAAGACGATT against Sertad4 | inactive: 0.286
GGAGGACACUCAGAAGAAATT against Syne2 | inactive: 0.972
CCAAGACAAGAGCGAUUAATT against Letmd1 | inactive: 0.00625
CCUUGGUACUUCGAGUUUATT against Gpr87 | inactive: 0.0711
GGUGAAGAAGACUCAUGAATT against Gnb1l | inactive: -0.875
GCCAACCCUGAAAACCCUUTT against Gc | active: -2.54
GGAGUUGGCUAAGCUCUCATT against Elmo2 | inactive: -1.51
GCAUUUAAGGACCUUGUAATT against Olfr813 | inactive: -1.5
GGCAUAAUCUUCCAUUGUCTT against Klhl23 | inactive: 0.455
GGAAUCAGGACAUUAGUGATT against Olfr868 | inactive: 0.359
CCUCCAUUGACGCAAUAUCTT against Mvk | inactive: -0.809
CCUGAUGCACGUGCUAAAGTT against Ripk1 | inactive: 0.583
GCUGGGAAGGUGACGUAAUTT against Lrrc59 | inactive: -0.481
GCCGUGGAUGUCAUUUACUTT against Depdc7 | inactive: 1.21
GGAGCUGGAAGACACGAGATT against Ccdc113 | inactive: -1.89

4 neighbouring records already listed, for reference:
Sequence | z-score
GGAAUCAGGACAUUAGUGATT against Olfr868 | inactive: 0.359
CCUCCAUUGACGCAAUAUCTT against Mvk | inactive: -0.809
CCUGAUGCACGUGCUAAAGTT against Ripk1 | inactive: 0.583
GCUGGGAAGGUGACGUAAUTT against Lrrc59 | inactive: -0.481

More entries:

Sequence | z-score
GGUUGUACUUGUUUUUCCUTT against Dtwd1 | inactive: 1.35
CUCACAAGUCAAAGCCUACTT against Zfp182 | inactive: 0.121
CCACCAAUGAUUUGAUGCATT against Gpr75 | inactive: -0.0162
CGUAUCGAUGUGGAUAAUATT against Tpst1 | inactive: 0.425
CCUAGCAACAUUCUUUAUGTT against Rps6ka3 | inactive: 0.106
GCUGAUCACACCAUCCCUATT against Hccs | inactive: -0.789
GGACAACAGCUGAAGAACUTT against Slc35a1 | inactive: -0.798
GCCACAACAAACCUACGACTT against Xpc | inactive: -1.32
GGCUGAAGAUGGAGAGAACTT against Tbca | inactive: 0.263
GGCUAUGCAAGUGUUCUCUTT against Scgb2b20 | inactive: 0.103
GCUGAUGGUAAAUUCACAGTT against Serpinb3c | inactive: -1.01
GGCCAGCUUUUCCUAGAUGTT against C030006K11Rik | inactive: 0.00752
GCAAACUUUUUCUGUAAAGTT against Atg4a | inactive: 0.408
UAGUCGGCCACUUCAGAGATT against Olfr825 | inactive: 1.35
GCUGACCUACAUCUCGAAGTT against Plekha2 | inactive: 0.274
GCUCCAACAAGGCAUAAAATT against Dis3 | inactive: -1.71
GGGUUUCACCCAAAGCCUUTT against Zfp354c | inactive: -1.41
GCAGACAACGCACUGAUGATT against Zfp804a | inactive: -0.0561
GCUGCAAUAGUCACUGGAGTT against H2-K1 | inactive: 0.115
GGUAUCCACAGUAAAAUUGTT against Pcp4 | inactive: -0.407
GGUGCUGGUUUUUAAGAAATT against Hsbp1 | inactive: 1.84
GGAACAGUCAUAUAAAGAATT against Grm8 | inactive: 0.218
GGUUACCAUGAGGAGGAUUTT against Spata6 | inactive: -1.37

Sequence | z-score
GCUCUCUUAAAGCAUGUAATT against Cog6 | inactive: 0.213
GGCUCCUGAUUGUUUACCCTT against Hbb-bh1 | inactive: 1.05
GCUUUGUUGGGAGUGAAAUTT against Olfr728 | active: -2.11
CGGCAACCAAUGCAUACAATT against Tpd52 | inactive: 0.441
GGCAGGUAAUAAACAGACATT against 2410141K09Rik | inactive: -1.38
GGACCAUGUUAGAGCAUGCTT against Traf2 | active: -2.36
GGAUUGUGCUGUGAAACAUTT against Pilrb1 | inactive: -1.89
GCUUUUUAAGACUUUGUCATT against Mcl1 | inactive: -0.267
GGAAAUCUAUUUCAUUGACTT against Zcchc10 | inactive: 0.956
GGCAACUAUGUAAAACCUUTT against Sorbs1 | inactive: -0.0324
GGAAAAAAAAAUGACUCCUTT against Kcne1 | inactive: 0.591
GGUUCUUUUUACUCAGUGGTT against Ankhd1 | active: -2.53
CGAGCUUAUCAUCAGCGACTT against Polr2f | active: -2.74
GGGAGUUAUUUAAGAUUCUTT against Has1 | inactive: 0.0567
GGGCAACUUUUUGAUAUUCTT against Nacc2 | inactive: -0.601
GCUCCAGUUAAAUGUUACATT against Icam5 | inactive: 0.169
GCAAAAAUGUUAAGGGUGCTT against Snph | inactive: -1.97
GCUAAAUUACACAUUGACCTT against Vcam1 | inactive: 0.226
CCGGACUUUAGAAUAAUGUTT against Hhex | inactive: 0.144
CCCUCUUUACCAGUAUUACTT against Pla2g5 | inactive: 0.287
CCAUCGAUCACGUCAAAGGTT against Rbm15b | inactive: -1.07
GCAAGUGGUGUUUUAACCUTT against Ccdc169 | inactive: -1.83
